PubChem BioAssay AID1224830 | NIAID | 2016
In all, the deposit lists about 18,000 reagents; below is a random part of them. About 2,900 of all reagents (16%) count as active. 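Calls are made per well; low scores hint the gene aids the LPS response, high scores that it dampens it.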 Repeated entries: four replicate wells of each siRNA pool. Reagent sequences are not shown.

Aim: 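Host factors that control LPS-induced TNF expression in human macrophages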 (primary screen)
Cell system: human THP-1 monocytic leukaemia cells, TNF dual-luciferase reporter clone, PMA-differentiated to macrophage-like cells
Reagents: siRNA pool against human genes, 50 nM
Duration: LPS for 4 h, given about 3 days after siRNA transfection
Conditions: bacterial LPS (TLR4 ligand), 10 ng/ml
Detection: 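Ratio of firefly to renilla light, scaled to the plate median and expressed as a robust z-score per replicate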
Direction: TNF reporter robust z-score: higher = stronger TNF reporter response to LPS
Active means: 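Each well counts as active if its z-score is over 2.8 or under -1.5; controls are left without a call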

Depletion of CACNG2 came out at: TNF reporter robust z-score 0.3; inactive. For CACNG2, the values are TNF reporter robust z-score -0.11; inactive. Against CACNG2, the values are TNF reporter robust z-score -0.8; inactive. After knock-down of CACNG2, the record shows TNF reporter robust z-score -0.15; inactive. OR5P2 showed TNF reporter robust z-score -0.71; inactive. After knock-down of OR5P2, the record shows TNF reporter robust z-score -0.07; inactive.

OR5P2 scored TNF reporter robust z-score -0.31; inactive. Knock-down of OR5P2 gave: TNF reporter robust z-score 0.08; inactive. After knock-down of CD300LG, the record shows TNF reporter robust z-score 0.41; inactive. With knock-down of CD300LG the results were TNF reporter robust z-score -0.3; inactive. For CD300LG the deposit lists TNF reporter robust z-score 2.22; inactive. Depletion of CD300LG came out at: TNF reporter robust z-score 1.4; inactive.

Knock-down of WFDC6 gave: TNF reporter robust z-score -0.86; inactive. Against WFDC6, the values are TNF reporter robust z-score -1.12; inactive. Against WFDC6, the values are TNF reporter robust z-score -1.18; inactive. Silencing of WFDC6 gave: TNF reporter robust z-score -0.78; inactive. Against ST20-AS1, the values are TNF reporter robust z-score 1.04; inactive. ST20-AS1 gave TNF reporter robust z-score 0.08; inactive.

Against ST20-AS1, the entry reads TNF reporter robust z-score -0.04; inactive. With knock-down of ST20-AS1, the screen gave TNF reporter robust z-score 0.01; inactive. For RUVBL2 the deposit lists TNF reporter robust z-score 1.08; inactive. After knock-down of RUVBL2, the record shows TNF reporter robust z-score 0.95; inactive. After knock-down of RUVBL2 the results were TNF reporter robust z-score -0.89; inactive. After knock-down of RUVBL2, the screen gave TNF reporter robust z-score 0.3; inactive.

TMEM258 scored TNF reporter robust z-score -0.9; inactive. TMEM258 scored TNF reporter robust z-score -1.15; inactive. With knock-down of TMEM258 the results were TNF reporter robust z-score -0.88; inactive. Depletion of TMEM258 resulted in: TNF reporter robust z-score -0.81; inactive.

Quoted from above (3 entries):
TMEM258 → TNF reporter robust z-score: -1.15; call: inactive
TMEM258 → TNF reporter robust z-score: -0.88; call: inactive
TMEM258 → TNF reporter robust z-score: -0.81; call: inactive

Continued:
Against RFX4 the deposit lists TNF reporter robust z-score -0.06; inactive. Against RFX4, the values are TNF reporter robust z-score -1.07; inactive. RFX4 showed TNF reporter robust z-score 0.1; inactive. After knock-down of RFX4 the results were TNF reporter robust z-score 2.55; inactive. For SPAG5, the values are TNF reporter robust z-score -2.06; active. Depletion of SPAG5 came out at: TNF reporter robust z-score -1.62; active.

Silencing of SPAG5 gave: TNF reporter robust z-score -1.98; active. For SPAG5, the entry reads TNF reporter robust z-score -1.55; active. For DERL1, the entry reads TNF reporter robust z-score -0.52; inactive. Silencing of DERL1 gave: TNF reporter robust z-score -0.61; inactive. DERL1 gave TNF reporter robust z-score -0.16; inactive. For DERL1 the deposit lists TNF reporter robust z-score -0.7; inactive.

Knock-down of AMBN resulted in: TNF reporter robust z-score 2.32; inactive. Knock-down of AMBN came out at: TNF reporter robust z-score 0.61; inactive. Against AMBN, the entry reads TNF reporter robust z-score 2.02; inactive. AMBN scored TNF reporter robust z-score 1.23; inactive. ACACB gave TNF reporter robust z-score -0.91; inactive. With knock-down of ACACB the results were TNF reporter robust z-score -0.42; inactive.

Against ACACB, the entry reads TNF reporter robust z-score -1.01; inactive. With knock-down of ACACB the results were TNF reporter robust z-score -0.07; inactive. After knock-down of DUSP29 the results were TNF reporter robust z-score -0.43; inactive. For DUSP29 the deposit lists TNF reporter robust z-score 0.23; inactive. Against DUSP29 the deposit lists TNF reporter robust z-score 1.92; inactive. DUSP29 scored TNF reporter robust z-score 0.28; inactive.

After knock-down of ZDHHC13 the results were TNF reporter robust z-score 0.16; inactive. Silencing of ZDHHC13 resulted in: TNF reporter robust z-score -0.12; inactive. ZDHHC13 gave TNF reporter robust z-score -0.33; inactive. Against ZDHHC13, the values are TNF reporter robust z-score 0.69; inactive. Depletion of MAPRE3 gave: TNF reporter robust z-score -0.95; inactive. Depletion of MAPRE3 came out at: TNF reporter robust z-score -0.02; inactive.

After knock-down of MAPRE3, the record shows TNF reporter robust z-score -0.85; inactive. For MAPRE3, the entry reads TNF reporter robust z-score 0.15; inactive.
